Assay results as given in doi:10.1101/2023.12.14.571518 (bioRxiv, 2023).
Results are given in words; binding and its absence hold for the method and conditions named. Some results given as binding are weak or reduced against the parent protein; the word gives no strength.

What was measured:
[1] = biological target: S. scrofa GCP3 (S. scrofa (endogenous in porcine brain)) (UniProt F1RN46); assay: cryo-EM structure
[2] = biological target: S. scrofa GCP6 (S. scrofa (endogenous in porcine brain)) (UniProt F1RXS1); assay: cryo-EM structure

Binder: TVSPTRARNMKDFENQITELKKENFNLKLRIYFLEERMQQEFHGPTEHIY (domain or fragment, human, UniProt Q96SN8 51-100, looked up) [CDK5RAP2(51-100)]
- binding [1]: binds
- binding [2]: binds
